Assay results: paper PMC7407367
Results are given in words; binding and its absence hold for the method and conditions named. Binding seen in cells or lysates may run through a third protein. Some results given as binding are weak or reduced against the parent protein; the word gives no strength.

Amino acid sequences for entries named in this document (tags omitted).
UniProt O15061: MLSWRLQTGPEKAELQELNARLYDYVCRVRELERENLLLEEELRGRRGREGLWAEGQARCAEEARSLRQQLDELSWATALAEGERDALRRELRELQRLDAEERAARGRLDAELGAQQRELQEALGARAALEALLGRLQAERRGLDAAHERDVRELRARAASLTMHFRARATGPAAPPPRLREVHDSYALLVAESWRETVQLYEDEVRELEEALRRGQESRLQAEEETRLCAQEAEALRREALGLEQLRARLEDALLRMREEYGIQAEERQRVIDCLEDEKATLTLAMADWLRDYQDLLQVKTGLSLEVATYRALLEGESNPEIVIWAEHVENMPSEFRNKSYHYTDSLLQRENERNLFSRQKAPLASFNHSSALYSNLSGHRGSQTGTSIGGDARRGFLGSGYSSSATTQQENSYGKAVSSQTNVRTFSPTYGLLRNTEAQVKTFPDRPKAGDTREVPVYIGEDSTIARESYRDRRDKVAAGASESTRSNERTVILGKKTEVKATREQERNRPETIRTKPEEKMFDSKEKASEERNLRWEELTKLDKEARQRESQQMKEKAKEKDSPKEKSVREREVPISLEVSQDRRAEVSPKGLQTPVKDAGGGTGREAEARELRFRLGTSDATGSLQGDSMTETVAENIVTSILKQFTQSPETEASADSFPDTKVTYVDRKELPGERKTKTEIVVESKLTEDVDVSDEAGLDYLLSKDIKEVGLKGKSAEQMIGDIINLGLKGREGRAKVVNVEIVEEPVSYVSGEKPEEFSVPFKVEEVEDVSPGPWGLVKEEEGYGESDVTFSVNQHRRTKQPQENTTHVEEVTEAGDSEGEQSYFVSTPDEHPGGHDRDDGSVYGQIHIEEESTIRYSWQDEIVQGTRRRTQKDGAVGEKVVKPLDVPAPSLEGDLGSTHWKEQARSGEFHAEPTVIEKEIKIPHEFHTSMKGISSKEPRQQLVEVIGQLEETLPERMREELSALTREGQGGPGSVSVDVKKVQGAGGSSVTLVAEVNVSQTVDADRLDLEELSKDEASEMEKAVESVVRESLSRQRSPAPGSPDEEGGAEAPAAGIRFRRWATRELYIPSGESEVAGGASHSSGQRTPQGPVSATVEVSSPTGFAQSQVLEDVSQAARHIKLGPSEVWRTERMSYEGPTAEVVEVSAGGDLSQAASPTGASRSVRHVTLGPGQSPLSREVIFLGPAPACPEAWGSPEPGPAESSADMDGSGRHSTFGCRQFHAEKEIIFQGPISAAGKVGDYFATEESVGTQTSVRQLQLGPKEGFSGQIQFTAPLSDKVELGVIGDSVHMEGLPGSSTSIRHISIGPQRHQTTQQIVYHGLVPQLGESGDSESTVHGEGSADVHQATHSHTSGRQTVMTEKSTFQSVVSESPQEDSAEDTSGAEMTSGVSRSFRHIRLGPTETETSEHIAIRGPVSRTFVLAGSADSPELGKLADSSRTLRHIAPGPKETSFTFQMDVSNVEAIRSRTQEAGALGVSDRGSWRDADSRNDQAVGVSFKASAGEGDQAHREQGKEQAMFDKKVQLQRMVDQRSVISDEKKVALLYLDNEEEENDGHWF
UniProt P78527: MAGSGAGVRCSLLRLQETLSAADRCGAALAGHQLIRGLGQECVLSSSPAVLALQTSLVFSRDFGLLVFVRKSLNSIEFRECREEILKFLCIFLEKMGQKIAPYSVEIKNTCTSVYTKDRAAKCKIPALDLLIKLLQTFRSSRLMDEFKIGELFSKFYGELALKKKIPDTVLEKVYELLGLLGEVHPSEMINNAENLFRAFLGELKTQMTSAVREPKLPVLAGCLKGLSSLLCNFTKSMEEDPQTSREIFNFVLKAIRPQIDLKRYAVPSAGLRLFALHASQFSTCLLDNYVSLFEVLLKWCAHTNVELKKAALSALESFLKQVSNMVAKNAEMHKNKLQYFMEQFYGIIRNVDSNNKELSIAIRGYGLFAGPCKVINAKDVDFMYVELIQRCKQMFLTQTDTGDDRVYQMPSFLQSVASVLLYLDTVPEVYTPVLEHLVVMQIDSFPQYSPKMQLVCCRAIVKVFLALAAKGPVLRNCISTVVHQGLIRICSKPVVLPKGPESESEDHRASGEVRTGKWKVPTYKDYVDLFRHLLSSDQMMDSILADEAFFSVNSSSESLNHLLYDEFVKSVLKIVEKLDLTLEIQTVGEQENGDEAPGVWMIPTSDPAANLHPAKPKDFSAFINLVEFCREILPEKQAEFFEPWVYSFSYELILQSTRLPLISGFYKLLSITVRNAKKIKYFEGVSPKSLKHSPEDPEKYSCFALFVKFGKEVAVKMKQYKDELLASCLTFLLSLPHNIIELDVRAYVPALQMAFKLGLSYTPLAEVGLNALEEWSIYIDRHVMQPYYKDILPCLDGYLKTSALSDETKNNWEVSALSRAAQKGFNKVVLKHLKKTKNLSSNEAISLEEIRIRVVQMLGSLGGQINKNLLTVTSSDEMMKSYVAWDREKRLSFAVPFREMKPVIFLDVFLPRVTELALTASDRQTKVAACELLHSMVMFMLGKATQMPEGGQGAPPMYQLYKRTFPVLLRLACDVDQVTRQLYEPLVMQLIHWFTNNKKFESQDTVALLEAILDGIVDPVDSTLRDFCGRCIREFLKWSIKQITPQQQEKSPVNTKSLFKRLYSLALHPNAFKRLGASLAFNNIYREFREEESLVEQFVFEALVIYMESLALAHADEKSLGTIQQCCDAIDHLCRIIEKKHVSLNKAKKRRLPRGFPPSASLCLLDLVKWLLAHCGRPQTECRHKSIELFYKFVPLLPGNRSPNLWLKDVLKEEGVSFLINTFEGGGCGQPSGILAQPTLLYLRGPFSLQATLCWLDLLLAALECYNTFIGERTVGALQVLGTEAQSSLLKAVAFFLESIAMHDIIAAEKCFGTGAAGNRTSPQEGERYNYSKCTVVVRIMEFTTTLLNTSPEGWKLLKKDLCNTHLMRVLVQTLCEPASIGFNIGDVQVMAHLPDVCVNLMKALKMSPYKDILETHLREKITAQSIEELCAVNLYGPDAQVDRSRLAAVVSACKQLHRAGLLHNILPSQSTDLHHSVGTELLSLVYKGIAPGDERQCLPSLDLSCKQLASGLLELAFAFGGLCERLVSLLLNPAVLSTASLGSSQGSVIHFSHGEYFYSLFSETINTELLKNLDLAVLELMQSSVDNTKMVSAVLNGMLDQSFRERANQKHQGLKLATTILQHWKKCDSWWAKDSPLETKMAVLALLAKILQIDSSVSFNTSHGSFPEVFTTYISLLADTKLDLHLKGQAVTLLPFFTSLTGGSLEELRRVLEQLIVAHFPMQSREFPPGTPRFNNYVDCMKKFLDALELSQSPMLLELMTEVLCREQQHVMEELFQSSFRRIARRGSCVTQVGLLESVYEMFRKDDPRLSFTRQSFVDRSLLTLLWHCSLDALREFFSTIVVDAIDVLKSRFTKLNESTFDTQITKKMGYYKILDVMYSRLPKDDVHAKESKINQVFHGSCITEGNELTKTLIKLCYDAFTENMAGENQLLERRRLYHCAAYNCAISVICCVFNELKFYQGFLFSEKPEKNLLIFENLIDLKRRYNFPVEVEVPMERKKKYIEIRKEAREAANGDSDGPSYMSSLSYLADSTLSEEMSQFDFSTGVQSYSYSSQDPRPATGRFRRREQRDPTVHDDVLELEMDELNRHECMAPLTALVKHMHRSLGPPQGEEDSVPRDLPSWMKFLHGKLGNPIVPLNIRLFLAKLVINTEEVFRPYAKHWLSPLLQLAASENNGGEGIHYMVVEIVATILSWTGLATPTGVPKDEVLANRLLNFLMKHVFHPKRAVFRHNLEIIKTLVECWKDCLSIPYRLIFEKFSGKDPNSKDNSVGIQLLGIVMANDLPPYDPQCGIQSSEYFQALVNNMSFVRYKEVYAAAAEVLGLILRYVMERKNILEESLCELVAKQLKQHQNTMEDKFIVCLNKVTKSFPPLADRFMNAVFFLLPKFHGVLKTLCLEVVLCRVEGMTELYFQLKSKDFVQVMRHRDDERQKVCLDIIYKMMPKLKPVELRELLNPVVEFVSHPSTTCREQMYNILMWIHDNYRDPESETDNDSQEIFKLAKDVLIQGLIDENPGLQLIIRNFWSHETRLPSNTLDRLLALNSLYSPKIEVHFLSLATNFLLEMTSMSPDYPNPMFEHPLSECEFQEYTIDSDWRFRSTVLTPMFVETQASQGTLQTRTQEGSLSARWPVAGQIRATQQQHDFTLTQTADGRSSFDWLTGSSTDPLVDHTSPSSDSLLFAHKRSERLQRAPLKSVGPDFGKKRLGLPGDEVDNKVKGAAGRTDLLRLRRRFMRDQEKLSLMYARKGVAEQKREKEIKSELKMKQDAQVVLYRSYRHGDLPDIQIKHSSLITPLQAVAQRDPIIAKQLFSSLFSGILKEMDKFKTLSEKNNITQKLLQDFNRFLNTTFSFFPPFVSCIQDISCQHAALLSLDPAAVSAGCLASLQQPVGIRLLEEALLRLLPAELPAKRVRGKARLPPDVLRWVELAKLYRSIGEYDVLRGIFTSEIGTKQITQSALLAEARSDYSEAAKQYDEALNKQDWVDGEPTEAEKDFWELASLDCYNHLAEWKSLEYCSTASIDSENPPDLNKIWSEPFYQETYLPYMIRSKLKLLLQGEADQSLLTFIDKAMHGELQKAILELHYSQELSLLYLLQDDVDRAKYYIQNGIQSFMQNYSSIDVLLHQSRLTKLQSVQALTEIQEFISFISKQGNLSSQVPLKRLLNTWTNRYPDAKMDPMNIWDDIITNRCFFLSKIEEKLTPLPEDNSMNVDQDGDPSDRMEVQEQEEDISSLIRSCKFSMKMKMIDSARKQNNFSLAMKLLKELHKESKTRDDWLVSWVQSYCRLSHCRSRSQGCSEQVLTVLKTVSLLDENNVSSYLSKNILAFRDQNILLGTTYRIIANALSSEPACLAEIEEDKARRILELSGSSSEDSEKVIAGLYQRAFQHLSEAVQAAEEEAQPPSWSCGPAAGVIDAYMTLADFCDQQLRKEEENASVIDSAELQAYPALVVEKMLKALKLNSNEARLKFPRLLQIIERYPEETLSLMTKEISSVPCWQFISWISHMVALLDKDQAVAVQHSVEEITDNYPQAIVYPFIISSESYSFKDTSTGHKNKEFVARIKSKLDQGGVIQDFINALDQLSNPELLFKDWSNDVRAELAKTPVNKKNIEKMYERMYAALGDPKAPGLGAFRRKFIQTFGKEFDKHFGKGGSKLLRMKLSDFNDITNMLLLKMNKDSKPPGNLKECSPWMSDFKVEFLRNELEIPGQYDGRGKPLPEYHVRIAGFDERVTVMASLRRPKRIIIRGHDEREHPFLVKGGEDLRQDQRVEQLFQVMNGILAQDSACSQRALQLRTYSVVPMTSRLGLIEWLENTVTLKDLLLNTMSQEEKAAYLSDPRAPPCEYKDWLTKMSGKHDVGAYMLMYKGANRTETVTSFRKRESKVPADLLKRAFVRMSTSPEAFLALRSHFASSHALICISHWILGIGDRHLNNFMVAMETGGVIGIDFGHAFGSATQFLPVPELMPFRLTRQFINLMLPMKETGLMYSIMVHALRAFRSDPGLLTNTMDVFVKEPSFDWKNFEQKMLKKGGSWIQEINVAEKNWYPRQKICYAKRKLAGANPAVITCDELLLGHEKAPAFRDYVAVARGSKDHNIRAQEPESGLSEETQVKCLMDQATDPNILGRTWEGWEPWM

Key:
[1] = molecular target: synemin (endogenous) (human (endogenous in SAS)) (UniProt O15061); assay: co-IP; immunoprecipitation of endogenous synemin from SAS cell lysates with protein A/G beads, IgG control; unirradiated cells and cells 1 h after 6-Gy X-rays; blot for DNA-PKcs
mCherry–Synemin (human) = mCherry–Synemin (human) (UniProt O15061); assay: co-IP; mCherry immunoprecipitates from mCherry–Synemin-SAS cells, mCherry-SAS as control; unirradiated cells and cells 1 h after 6-Gy X-rays; blot for DNA-PKcs
[2] = molecular target: synemin (endogenous) (human (endogenous in SAS)) (UniProt O15061); assay: condition: only in ATM-depleted SKX cells (ATM downregulation by miR-421 overexpression); co-IP; immunoprecipitation of endogenous synemin from SKX cells (ATM downregulated by miR-421 overexpression), unirradiated and 1 h after 6-Gy X-rays; blot for DNA-PKcs
[3] = molecular target: synemin (endogenous) (human (endogenous in SAS)) (UniProt O15061); assay: proximity ligation; Duolink PLA with mouse and rabbit PLUS and MINUS probes, between synemin and DNA-PKcs S2056; signal mainly nuclear

| binding [1] | binding (mCherry–Synemin (human)) | binding [2] | binding [3] | Substance |
| --- | --- | --- | --- | --- |
| binds | binds | no binding | – | DNA protein kinase catalytic subunit (DNA-PKcs) (from UniProt P78527 1-4128) |
| – | – | – | binds | DNA-PKcs S2056 (phosphorylated form of DNA-PKcs) (from UniProt P78527 1-4128) |
